Broadly, the IC50 is the midpoint of a concentration-inhibition curve.

The values below come from paper PMC6214143, “Oncotoxic Properties of Serotonin Transporter Inhibitors and 5-HT1A Receptor Ligands” (International Journal of Molecular Sciences, 2018).

One experiment relates to Balb/c 3T3 cells. Description: MTT cell survival assay, Balb/c 3T3 cells (normal reference). In kind it is cell-based, murine. The conditions noted are these: Mus musculus, BALB/c3T3, 72 h. The procedure:
(§1) The effects of the test compounds on the survival of PC-3, SH-SY5Y, Balb/c 3T3 and HEK293 cells was measured with the aid of the 3-(4,5-dimethylthiazol-2-yl)-2,5-diphenyltetrazolium bromide (MTT) assay. The cells were cultured in 96-well plates (100 μL/well) for 72 h. The optimized initial densities were the following: for PC-3—60,000 cells/mL, SH-SY5Y and Balb/c 3T3—50,000 cells/mL.
(§2) After 20 h preincubation and evaluation of the uniformity of cell growth, the medium was aspirated, and the respective solutions of the substances were added to the culture medium. Control cells were only treated the solvent used for the compounds and medium alone.
(§3) MTT (3-(4,5-dimethylthiazol-2-yl)-2,5-diphenyltetrazolium bromide) is reduced by intracellular dehydrogenase, which is present only in live cells (mitochondria), to purple, water-insoluble formazan. After it is dissolved, formazan absorbance of the resulting solution is directly proportional to the number of living cells in culture.
After appropriate incubation, the culture medium was removed. Next, 50 μL of MTT solution (0.5 mg/mL) diluted in PBS to 0.5 mg/mL was added to each well. […] After a 24-hour incubation at 4 °C in the dark, the absorbance of the dissolved formazan was measured at 570 nm (the maximum absorption of formazan) and at 690 nm (reference wavelength) using a Power Wave XS microplate spectrophotometer (Bio-Tek, Winooski, VT, USA). […]

The subject of the next experiment is SH-SY5Y cells. Description: MTT cell survival assay, SH-SY5Y cells. Format: cell-based. To be noted: Homo sapiens, 72 h. The procedure: as §1, §2, §3
(§4) After appropriate incubation, the culture medium was removed. Next, 50 μL of MTT solution (0.5 mg/mL) diluted in PBS to 0.5 mg/mL was added to each well. […] The test was performed in three to five independent experiments with four times the measured concentration tested. The cell survival percentage was determined as % of controls, which were cells treated with the test compound solvent at the highest concentration.
Background: Tetrazolium assays rely on reduction of a dye to a coloured formazan, in cell work by metabolically active cells.

The next experiment has as its system PC-3 cells. Description: MTT cell survival assay, PC-3 cells. In kind it is cell-based. To be noted: Homo sapiens, 72 h. As to the method:
as §1, §2, §3, §4

As to `CNCCC(Oc1ccc(C(F)(F)F)cc1)c1ccccc1` (stereo not drawn) [Fluoxetine, fluoxetine, reference compound], the IC50 with Balb/c 3T3 cells stood at 26.2 ± 2.71 µM; in the experiment on SH-SY5Y cells it was 25.3 ± 4.41 µM; with PC-3 cells it was 17.1 ± 1.38 µM.
